Source: publication doi:10.1101/2022.12.14.520480
Results are given in words; binding and its absence hold for the method and conditions named. Binding seen in cells or lysates may run through a third protein. Some results given as binding are weak or reduced against the parent protein; the word gives no strength. For part of these data: Sequences can lack the tags named with a protein.

Tests used:
Experiment in all cases: co-IP
[1] = molecular target: T1, Dynamin2 (endogenous) (human (endogenous in HeLa and HEK 293T)) (UniProt P50570)
T1 sequence: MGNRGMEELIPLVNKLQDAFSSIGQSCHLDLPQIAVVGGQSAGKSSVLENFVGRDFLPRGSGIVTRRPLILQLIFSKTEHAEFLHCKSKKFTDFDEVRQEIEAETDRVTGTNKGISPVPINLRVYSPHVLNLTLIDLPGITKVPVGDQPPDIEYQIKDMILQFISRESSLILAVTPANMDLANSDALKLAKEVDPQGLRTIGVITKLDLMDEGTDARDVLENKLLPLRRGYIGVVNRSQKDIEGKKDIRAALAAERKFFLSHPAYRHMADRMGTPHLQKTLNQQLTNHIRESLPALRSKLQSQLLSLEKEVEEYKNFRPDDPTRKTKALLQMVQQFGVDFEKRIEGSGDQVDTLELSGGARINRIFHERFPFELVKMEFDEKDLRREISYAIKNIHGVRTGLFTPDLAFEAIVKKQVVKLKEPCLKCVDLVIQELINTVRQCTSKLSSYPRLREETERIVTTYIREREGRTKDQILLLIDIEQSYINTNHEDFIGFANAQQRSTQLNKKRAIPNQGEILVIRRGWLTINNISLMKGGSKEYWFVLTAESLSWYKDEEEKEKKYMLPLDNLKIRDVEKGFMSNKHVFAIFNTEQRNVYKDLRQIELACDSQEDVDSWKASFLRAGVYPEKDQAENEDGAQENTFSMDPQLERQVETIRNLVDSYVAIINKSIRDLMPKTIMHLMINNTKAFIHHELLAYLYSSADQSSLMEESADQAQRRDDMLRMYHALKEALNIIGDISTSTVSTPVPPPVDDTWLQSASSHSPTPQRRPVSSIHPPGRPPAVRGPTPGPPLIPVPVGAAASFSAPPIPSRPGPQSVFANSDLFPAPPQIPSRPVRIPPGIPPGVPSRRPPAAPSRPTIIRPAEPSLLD

HA-tagged LIMP2 = molecular target: T2, HA-tagged LIMP2 (UniProt Q14108)
T2 sequence: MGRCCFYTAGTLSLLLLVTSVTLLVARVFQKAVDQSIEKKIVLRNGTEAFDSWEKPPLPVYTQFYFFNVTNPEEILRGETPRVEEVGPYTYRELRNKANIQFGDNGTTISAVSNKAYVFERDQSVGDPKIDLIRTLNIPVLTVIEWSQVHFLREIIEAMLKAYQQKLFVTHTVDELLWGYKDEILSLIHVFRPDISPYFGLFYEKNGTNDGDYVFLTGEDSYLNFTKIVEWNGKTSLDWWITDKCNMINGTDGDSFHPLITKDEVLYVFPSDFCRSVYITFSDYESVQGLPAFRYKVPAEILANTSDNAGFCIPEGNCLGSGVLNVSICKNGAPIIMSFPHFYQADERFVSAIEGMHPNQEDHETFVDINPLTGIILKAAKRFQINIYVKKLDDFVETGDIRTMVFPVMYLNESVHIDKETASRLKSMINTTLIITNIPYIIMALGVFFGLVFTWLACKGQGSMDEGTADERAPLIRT

[2] = molecular target: T3, HA-tagged TMEM192 wild type (UniProt Q8IY95)
T3 sequence: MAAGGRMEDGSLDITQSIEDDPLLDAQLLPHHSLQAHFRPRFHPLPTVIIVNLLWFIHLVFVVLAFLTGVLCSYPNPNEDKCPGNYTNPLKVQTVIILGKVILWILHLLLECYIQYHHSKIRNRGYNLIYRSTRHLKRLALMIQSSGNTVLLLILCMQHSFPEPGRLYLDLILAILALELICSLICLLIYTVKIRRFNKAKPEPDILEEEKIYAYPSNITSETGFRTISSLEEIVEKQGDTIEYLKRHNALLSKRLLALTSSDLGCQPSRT

binding [1]: binds
binding (HA-tagged LIMP2): binds
binding [2]: binds
B1: TBC1D15 (endogenous) (protein, UniProt Q8TC07 1-691)
chain: MAAAGVVSGKIIYEQEGVYIHSSCGKTNDQDGLISGILRVLEKDAEVIVDWRPLDDALDSSSILYARKDSSSVVEWTQAPKERGHRGSEHLNSYEAEWDMVNTVSFKRKPHTNGDAPSHRNGKSKWSFLFSLTDLKSIKQNKEGMGWSYLVFCLKDDVVLPALHFHQGDSKLLIESLEKYVVLCESPQDKRTLLVNCQNKSLSQSFENLLDEPAYGLIQAGLLDRRKLLWAIHHWKKIKKDPYTATMIGFSKVTNYIFDSLRGSDPSTHQRPPSEMADFLSDAIPGLKINQQEEPGFEVITRIDLGERPVVQRREPVSLEEWTKNIDSEGRILNVDNMKQMIFRGGLSHALRKQAWKFLLGYFPWDSTKEERTQLQKQKTDEYFRMKLQWKSISQEQEKRNSRLRDYRSLIEKDVNRTDRTNKFYEGQDNPGLILLHDILMTYCMYDFDLGYVQGMSDLLSPLLYVMENEVDAFWCFASYMDQMHQNFEEQMQGMKTQLIQLSTLLRLLDSGFCSYLESQDSGYLYFCFRWLLIRFKREFSFLDILRLWEVMWTELPCTNFHLLLCCAILESEKQQIMEKHYGFNEILKHINELSMKIDVEDILCKAEAISLQMVKCKELPQAVCEILGLQGSEVTTPDSDVGEDENVVMTPCPTSAFQSNALPTLSASGARNDSPTQIPVSSDVCRLTPA
